Assay [1] has as its target GST-MDC1-FHA domain (UniProt Q14676). Briefly: pull-down; GST or GST-MDC1-FHA domain coupled to Sepharose, incubated with lysates of cisplatin-treated HEK293T cells transfected with WT or T196A USP13; only the target purified.
Assay [2] addresses HA-MDC1 with the FHA domain deleted (UniProt Q14676). As to the kind of experiment: co-IP; HEK293T cells transfected with HA-MDC1 or its deletion mutants, untreated or treated with cisplatin; immunoprecipitation with HA antibody.

Protein sequences, listed by entry. Tags and fused reporters are not part of them. Lines headed by an entry give the natural chain unless they say otherwise; changes in a name come on top.
UniProt Q14676: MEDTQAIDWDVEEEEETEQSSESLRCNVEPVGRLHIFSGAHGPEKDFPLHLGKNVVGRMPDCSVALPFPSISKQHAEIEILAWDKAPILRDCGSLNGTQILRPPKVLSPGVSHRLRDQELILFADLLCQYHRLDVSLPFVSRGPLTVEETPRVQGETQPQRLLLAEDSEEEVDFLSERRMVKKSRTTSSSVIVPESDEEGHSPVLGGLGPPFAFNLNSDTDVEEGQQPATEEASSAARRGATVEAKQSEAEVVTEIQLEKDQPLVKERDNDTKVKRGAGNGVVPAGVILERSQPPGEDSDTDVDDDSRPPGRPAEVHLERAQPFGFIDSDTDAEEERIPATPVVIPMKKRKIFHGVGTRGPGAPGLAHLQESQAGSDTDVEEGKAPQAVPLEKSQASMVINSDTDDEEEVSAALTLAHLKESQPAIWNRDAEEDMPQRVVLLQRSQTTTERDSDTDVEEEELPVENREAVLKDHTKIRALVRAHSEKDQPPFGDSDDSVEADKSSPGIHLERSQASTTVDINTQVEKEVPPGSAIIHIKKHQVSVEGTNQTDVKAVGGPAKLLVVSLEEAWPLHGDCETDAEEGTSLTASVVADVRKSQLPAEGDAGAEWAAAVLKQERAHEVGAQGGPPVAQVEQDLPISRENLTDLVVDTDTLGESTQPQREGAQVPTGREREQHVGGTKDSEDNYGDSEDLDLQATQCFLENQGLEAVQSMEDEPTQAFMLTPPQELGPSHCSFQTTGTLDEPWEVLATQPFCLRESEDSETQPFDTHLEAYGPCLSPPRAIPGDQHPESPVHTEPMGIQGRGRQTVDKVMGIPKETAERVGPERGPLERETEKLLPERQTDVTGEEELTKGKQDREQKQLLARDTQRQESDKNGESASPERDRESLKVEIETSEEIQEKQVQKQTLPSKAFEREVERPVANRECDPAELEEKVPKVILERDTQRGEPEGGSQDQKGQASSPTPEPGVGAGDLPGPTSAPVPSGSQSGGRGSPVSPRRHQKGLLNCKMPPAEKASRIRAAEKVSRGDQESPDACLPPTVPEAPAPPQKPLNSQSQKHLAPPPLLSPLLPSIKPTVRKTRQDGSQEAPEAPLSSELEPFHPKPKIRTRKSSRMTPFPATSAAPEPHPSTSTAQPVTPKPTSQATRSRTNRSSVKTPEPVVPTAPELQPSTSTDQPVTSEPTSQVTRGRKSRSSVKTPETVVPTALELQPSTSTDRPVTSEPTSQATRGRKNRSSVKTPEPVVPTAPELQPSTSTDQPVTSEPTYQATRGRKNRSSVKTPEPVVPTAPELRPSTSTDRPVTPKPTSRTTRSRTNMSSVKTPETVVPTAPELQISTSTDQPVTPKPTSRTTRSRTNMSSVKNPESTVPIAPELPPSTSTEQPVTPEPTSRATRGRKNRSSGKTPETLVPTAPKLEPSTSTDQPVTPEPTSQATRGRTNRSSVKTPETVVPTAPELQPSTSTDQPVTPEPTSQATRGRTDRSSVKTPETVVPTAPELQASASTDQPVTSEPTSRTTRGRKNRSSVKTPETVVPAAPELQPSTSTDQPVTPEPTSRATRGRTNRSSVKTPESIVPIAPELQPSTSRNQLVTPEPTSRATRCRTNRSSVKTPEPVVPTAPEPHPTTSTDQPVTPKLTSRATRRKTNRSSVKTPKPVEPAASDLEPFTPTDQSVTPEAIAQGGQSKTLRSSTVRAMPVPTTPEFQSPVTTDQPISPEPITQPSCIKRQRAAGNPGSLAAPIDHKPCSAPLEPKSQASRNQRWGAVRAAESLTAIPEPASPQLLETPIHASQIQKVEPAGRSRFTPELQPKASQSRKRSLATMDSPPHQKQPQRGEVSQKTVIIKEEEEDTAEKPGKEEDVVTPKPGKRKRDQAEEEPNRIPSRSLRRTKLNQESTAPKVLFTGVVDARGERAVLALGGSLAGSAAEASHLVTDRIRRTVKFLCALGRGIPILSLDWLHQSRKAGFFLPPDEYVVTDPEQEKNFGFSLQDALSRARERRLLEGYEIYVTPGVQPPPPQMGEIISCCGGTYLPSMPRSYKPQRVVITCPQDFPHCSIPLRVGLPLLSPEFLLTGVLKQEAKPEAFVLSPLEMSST

Substitutions are numbered along the chain they refer to. Names may count otherwise. No constants are given. Whether binding was seen depends on the method and setting. Binding seen in cells or lysates may run through a third protein. For part of these data: A result given as binding can be weak or reduced; the word gives no strength. For part of these data: Sequences can lack the tags named with a protein.

B1: WT USP13 (HA-FLAG-USP13) (enzyme, UniProt Q92995 1-863)
chain: MQRRGALFGMPGGSGGRKMAAGDIGELLVPHMPTIRVPRSGDRVYKNECAFSYDSPNSEGGLYVCMNTFLAFGREHVERHFRKTGQSVYMHLKRHVREKVRGASGGALPKRRNSKIFLDLDTDDDLNSDDYEYEDEAKLVIFPDHYEIALPNIEELPALVTIACDAVLSSKSPYRKQDPDTWENELPVSKYANNLTQLDNGVRIPPSGWKCARCDLRENLWLNLTDGSVLCGKWFFDSSGGNGHALEHYRDMGYPLAVKLGTITPDGADVYSFQEEEPVLDPHLAKHLAHFGIDMLHMHGTENGLQDNDIKLRVSEWEVIQESGTKLKPMYGPGYTGLKNLGNSCYLSSVMQAIFSIPEFQRAYVGNLPRIFDYSPLDPTQDFNTQMTKLGHGLLSGQYSKPPVKSELIEQVMKEEHKPQQNGISPRMFKAFVSKSHPEFSSNRQQDAQEFFLHLVNLVERNRIGSENPSDVFRFLVEERIQCCQTRKVRYTERVDYLMQLPVAMEAATNKDELIAYELTRREAEANRRPLPELVRAKIPFSACLQAFSEPENVDDFWSSALQAKSAGVKTSRFASFPEYLVVQIKKFTFGLDWVPKKFDVSIDMPDLLDINHLRARGLQPGEEELPDISPPIVIPDDSKDRLMNQLIDPSDIDESSVMQLAEMGFPLEACRKAVYFTGNMGAEVAFNWIIVHMEEPDFAEPLTMPGYGGAASAGASVFGASGLDNQPPEEIVAIITSMGFQRNQAIQALRATNNNLERALDWIFSHPEFEEDSDFVIEMENNANANIISEAKPEGPRVKDGSGTYELFAFISHMGTSTMSGHYICHIKKEGRWVIYNDHKVCASERPPKDLGYMYFYRRIPS
modifications: phosphorylated on Thr196 after DNA damage (cells treated with cisplatin)
For the molecule B1, in assay [1], the binding result is “binds”.

B2: USP13 T196A (enzyme, UniProt Q92995 1-863)
chain: B1 chain with T196A
On to B2, for which the binding result in assay [1] is “no binding”.

B3: USP13 (in HEK293T lysate) (enzyme, UniProt Q92995 1-863)
chain: B1 chain
For B3, the binding entry in assay [2] was “no binding”.

For the origin of these results see publication PMC5461494.
